Binding signal data for 54 sequences are collected here from publication PMC7819943, “Rice protein-binding microarrays: a tool to detect cis-acting elements near promoter regions in rice”.

Some of the results follow.

The assay deals with T1, OsSMF1 (Oryza sativa, UniProt Q6ZLB0 1-436).
T1 sequence: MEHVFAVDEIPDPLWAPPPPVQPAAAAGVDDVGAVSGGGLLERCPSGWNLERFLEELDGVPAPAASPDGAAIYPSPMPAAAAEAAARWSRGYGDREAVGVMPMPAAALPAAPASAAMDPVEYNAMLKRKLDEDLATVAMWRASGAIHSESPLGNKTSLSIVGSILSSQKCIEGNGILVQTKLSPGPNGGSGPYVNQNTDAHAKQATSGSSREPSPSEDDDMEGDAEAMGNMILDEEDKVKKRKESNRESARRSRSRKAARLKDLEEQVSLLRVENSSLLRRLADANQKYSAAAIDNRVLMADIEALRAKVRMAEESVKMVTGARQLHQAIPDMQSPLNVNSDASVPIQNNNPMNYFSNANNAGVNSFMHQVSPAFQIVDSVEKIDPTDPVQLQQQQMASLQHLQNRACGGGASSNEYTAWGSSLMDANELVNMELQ
The assay can be described thus: protein-binding microarray (RPBM); PBS, 2% BSA, 51.3 ng/ul salmon testes DNA, 50 uM zinc acetate, 200 nM TF, 25 C, 1 h; high values mean tight binding. Conditions: protein: recombinant; tags: N-terminal polyhistidine and DsRed monomer fusion (pET32a); chain copies: 2; label: CyDye5-dUTP incorporated in the synthesized complementary strand; 3' TTTTT single-stranded linker to array surface; dsDNA, one strand shown. An outline of the steps: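 An Axon 4000B scanner gave the binding signal as per-feature fluorescence intensity in arbitrary units. This followed washing of a custom Agilent array that had been incubated for 1 h at 25 °C with 200 nM protein in PBS, 2% BSA, salmon testes DNA and 50 µM zinc acetate. The proteins were transcription factors fused at the N-terminus to polyhistidine and DsRed, expressed in E. coli BL21-CodonPlus and purified on Ni–NTA.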
As to “TCAGTTGCTGCAAAGATTGGGTCAGGCAGGCTTGAGTGTGCGGAGTCACCTAGTGCAG”, the binding signal was 3300 fluorescence intensity (a.u.).
For “AAGAGCCAAGAGCGCGCCCCACGCACGCGAGCCGTGCGGCCGGAGTCACCTAGTGCAG” the value was 23100 fluorescence intensity (a.u.).
In the case of “CAAGCCGGGCGGGAGCCGTGGCGGCGGCCGGGCGGGCGGGCGGAGTCACCTAGTGCAG”, the binding signal was 3340 fluorescence intensity (a.u.).
Next, “TCGTGGGCAGGATATAGTCCACGTGGCGTCCACCTGCGCGCGGAGTCACCTAGTGCAG”: 28600 fluorescence intensity (a.u.).
Regarding “ACGTGCTGGCGTGGGCGGACGCCGAGAGATTGAAGCGGGTCGGAGTCACCTAGTGCAG”, the binding signal is 9860 fluorescence intensity (a.u.).
Next, “TTATCTTACAAGCACAAATGATGTGGCATGTCCATATGGCCGGAGTCACCTAGTGCAG”: 9380 fluorescence intensity (a.u.).
Next, “GCGCGATCCGCGTCTCCGACTCAGTCAGATCTCCGTCCGTCGGAGTCACCTAGTGCAG”: 3560 fluorescence intensity (a.u.).
Regarding “GATCGATATATATTATATATTTGAGTAAATTTCGTAAATTCGGAGTCACCTAGTGCAG”, the binding signal is 18600 fluorescence intensity (a.u.).
As to “TTTAATCTGTTATTAGTCATCCATCACAATCCAAGCAAGTCGGAGTCACCTAGTGCAG”, the binding signal was 3380 fluorescence intensity (a.u.).
Regarding “CACCACTCTCTCTCCACCTCATCCATACATGCATGCATGCCGGAGTCACCTAGTGCAG”, the binding signal is 7130 fluorescence intensity (a.u.).
As for “CATGGTGAATTGGTGATTTTATAATGATGCTAAGCTTTGACGGAGTCACCTAGTGCAG”, the binding signal is 3660 fluorescence intensity (a.u.).
Take “AAGGGGTGGGCGGCAGGGATGCGGTGGGCGATGAGGGAGACGGAGTCACCTAGTGCAG”: the binding signal was 3560 fluorescence intensity (a.u.).
Consider “CGCGGGTTTGCGTGCCAACGTTTGACTGTTCGTCTTATATCGGAGTCACCTAGTGCAG”, for which the binding signal is 4070 fluorescence intensity (a.u.).
Consider “TTCGACCACCACGCATCGCCTGCTCTGCCGCGGCGACGCGCGGAGTCACCTAGTGCAG”, for which the binding signal is 15300 fluorescence intensity (a.u.).
For “AATTAACCTCATTATCATTTCATTTCACAACTTCTTTTGGCGGAGTCACCTAGTGCAG” the value was 19000 fluorescence intensity (a.u.); for “AACAAGGTTTGGGGCCTTAGGGGTGATTGTTCACCGTTGACGGAGTCACCTAGTGCAG”, 32200 fluorescence intensity (a.u.); for “AGAGTATTAGCACAGTACCAGTGCACTTCACAAGGAGCTTCGGAGTCACCTAGTGCAG”, 3520 fluorescence intensity (a.u.).
Next, “CCACCTCTATCCCTAGTTGGTGACTAAATTCTGGAGCGGTCGGAGTCACCTAGTGCAG”: 3340 fluorescence intensity (a.u.); “GCTAGTAGTAGTGAGCTTGTTGCTTTTGTTGCGTTGCTCCCGGAGTCACCTAGTGCAG”: 3210 fluorescence intensity (a.u.); “ACCGTCCTCGCGACCTCGCCTCTTATCATCCCGCGAATAACGGAGTCACCTAGTGCAG”: 3380 fluorescence intensity (a.u.).
For “TCAACACCGCCACGTCAACACCATGTCAGTGAAACCACCCCGGAGTCACCTAGTGCAG” the value was 24200 fluorescence intensity (a.u.).
With “GGGAGACGGCTTGCCGCCTCTTCTCCTTCCCGCTCCGCGCCGGAGTCACCTAGTGCAG”, the binding signal was 12600 fluorescence intensity (a.u.).
For “AGGGTGGCGAAGCGCGGAGGGCGGCGCGGCGCGCAGCGATCGGAGTCACCTAGTGCAG” the value was 3480 fluorescence intensity (a.u.).
For the sequence “ATGCTTGTCTGTACCCGCTCCTCCTTCCACGCCATCGCGTCGGAGTCACCTAGTGCAG”, the binding signal was 3920 fluorescence intensity (a.u.).
Next, “TGAAAGCATCCGGTAATTGGCAACTTTGAATGCATCGTTTCGGAGTCACCTAGTGCAG”: 3790 fluorescence intensity (a.u.); “AGTGGTAAACGATGTATCCATTGACAACGAGACAACTGTGCGGAGTCACCTAGTGCAG”: 3330 fluorescence intensity (a.u.); “AAGAGGGTGGGTTGTTGGGGAGAGGGGAGGGAGGAGGATTCGGAGTCACCTAGTGCAG”: 3320 fluorescence intensity (a.u.).
For “TATAGTCGCTGTCATCTTACACGTGTATATTACACGTGTACGGAGTCACCTAGTGCAG”, the binding signal is 10100 fluorescence intensity (a.u.).
Next, “AAAACAGAAAGCAAAGTTGGTGGCGCCATCAAACATCACACGGAGTCACCTAGTGCAG”: 3540 fluorescence intensity (a.u.).
For “CATACATGCATGTACTATGAATTCTTGACCTATTAGTAATCGGAGTCACCTAGTGCAG” the value was 20100 fluorescence intensity (a.u.); for “CAAAATGATTTGGTGAATCTAGCCAGCACATACCAATACGCGGAGTCACCTAGTGCAG”, 3550 fluorescence intensity (a.u.).
Turning to “AAGAAAAGAAGACTAAAATGAGTCACCACTTCCATTCTAACGGAGTCACCTAGTGCAG”, the binding signal is 11300 fluorescence intensity (a.u.).
Next, “TGATCCAAAAGAAACATCGCACGTTTGCAGATGCTGTCTCCGGAGTCACCTAGTGCAG”: 16700 fluorescence intensity (a.u.).
Next, “CCCTTCCGACATCCGGTCAAACGTCCGATGTGACACCTAACGGAGTCACCTAGTGCAG”: 3700 fluorescence intensity (a.u.); “AGTGATGATCCTTAGCATCATGGTGACCGCTCATCAGCCACGGAGTCACCTAGTGCAG”: 3240 fluorescence intensity (a.u.).
Next, “AGCGCGTCCACGTGCTCCCGGCGTGCGGGCACAGCTCCCGCGGAGTCACCTAGTGCAG”: 4760 fluorescence intensity (a.u.); “TCTTTTATGCTGCAATGGTAATTAGAAGAATATCGATCATCGGAGTCACCTAGTGCAG”: 3180 fluorescence intensity (a.u.).
For the sequence “TCTCCGTTCAGTGAATTATGTAATAAGTTGCTGTAACTTGCGGAGTCACCTAGTGCAG”, the binding signal was 3350 fluorescence intensity (a.u.).
Next, “ACTTGCAGGTGACGCACACGTACGTACTCACACAGCTAAGCGGAGTCACCTAGTGCAG”: 7080 fluorescence intensity (a.u.).
“AAACTCGGTCACTTAAGGATAAACTTCATTTAGTAGATTGCGGAGTCACCTAGTGCAG”: the binding signal was 3650 fluorescence intensity (a.u.).
Next, “GCTAATCAAATCCATCATGAGAGACACGCTCCGCTGGACTCGGAGTCACCTAGTGCAG”: 3290 fluorescence intensity (a.u.).
Regarding “TATAGTGTAGGGATGAGATGACGTGGCTTCACCACAACACCGGAGTCACCTAGTGCAG”, the binding signal was 15300 fluorescence intensity (a.u.).
For “AAATTTGTACCATCTTGTTGTCCATCATTCTTGACAAGAGCGGAGTCACCTAGTGCAG” the value was 3280 fluorescence intensity (a.u.).
Next, “TCCTCGCCTGCTTCCGTTGAGCCAGTCAGCCTCCTCCCTTCGGAGTCACCTAGTGCAG”: 3160 fluorescence intensity (a.u.).
Turning to “TTCGTAAAGGTTGCCGGTGACGTTAGAACATTGCTCACCTCGGAGTCACCTAGTGCAG”, the binding signal was 4700 fluorescence intensity (a.u.).
As to “GATCAATGTCGCCTGTCAGCTCAGTTCAGTTTTACCTCCCCGGAGTCACCTAGTGCAG”, the binding signal was 3870 fluorescence intensity (a.u.).
As for “GTGTGGTCTGTGGAGTGTATGGTTGATTTGGTTGGTAATTCGGAGTCACCTAGTGCAG”, the binding signal is 18000 fluorescence intensity (a.u.).
Take “ATCCCTACGTAAACCCGGGACGCTAGGTGTATTCTTTATTCGGAGTCACCTAGTGCAG”: the binding signal is 16800 fluorescence intensity (a.u.).
As for “ACCGGTGACCTGTAGCCACGCGCGTGGTAAATACGAAGCCCGGAGTCACCTAGTGCAG”, the binding signal is 3870 fluorescence intensity (a.u.).
For “AAGGTGATAGGGTCTCAAGTACGTCATTATGAATGTAAATCGGAGTCACCTAGTGCAG” the value was 3910 fluorescence intensity (a.u.); for “TCGAACTTCATCGAAGACGATGATGCAAGCACAGGTAGCTCGGAGTCACCTAGTGCAG”, 5020 fluorescence intensity (a.u.).
Turning to “GGTCAGATTCTTTCGCTGACGGAATCGCCATTATTATTTCCGGAGTCACCTAGTGCAG”, the binding signal is 20400 fluorescence intensity (a.u.).
For the sequence “TTCGACACAGTCATACGTGAGTCGGATGGAGTTAGGTCTGCGGAGTCACCTAGTGCAG”, the binding signal was 4150 fluorescence intensity (a.u.).
For “CTCAAGGATCTGCTTCACCGCAGCGCTGATGCTGCCAAGTCGGAGTCACCTAGTGCAG” the value was 3470 fluorescence intensity (a.u.).
